Over roughly 3,200 compounds, “TSA(with NAD+) / Primary screening (TSA) / delta Tm (K)” has its median near -0.04; the highest 2% begin near 0.37. Some of the results follow.
Biological target: NAD-dependent deacetylase Sirtuin 1 (human, UniProt Q96EB6)
Assay: primary screen, delta tm
Parameters: single well (n = 1, as 'the same TSA')
Conditions: 10 µM

By UniProt entry, the sequences of proteins in these tests, tags left out. Residues count along the entry.
UniProt Q96EB6, 2-747 limits assumed: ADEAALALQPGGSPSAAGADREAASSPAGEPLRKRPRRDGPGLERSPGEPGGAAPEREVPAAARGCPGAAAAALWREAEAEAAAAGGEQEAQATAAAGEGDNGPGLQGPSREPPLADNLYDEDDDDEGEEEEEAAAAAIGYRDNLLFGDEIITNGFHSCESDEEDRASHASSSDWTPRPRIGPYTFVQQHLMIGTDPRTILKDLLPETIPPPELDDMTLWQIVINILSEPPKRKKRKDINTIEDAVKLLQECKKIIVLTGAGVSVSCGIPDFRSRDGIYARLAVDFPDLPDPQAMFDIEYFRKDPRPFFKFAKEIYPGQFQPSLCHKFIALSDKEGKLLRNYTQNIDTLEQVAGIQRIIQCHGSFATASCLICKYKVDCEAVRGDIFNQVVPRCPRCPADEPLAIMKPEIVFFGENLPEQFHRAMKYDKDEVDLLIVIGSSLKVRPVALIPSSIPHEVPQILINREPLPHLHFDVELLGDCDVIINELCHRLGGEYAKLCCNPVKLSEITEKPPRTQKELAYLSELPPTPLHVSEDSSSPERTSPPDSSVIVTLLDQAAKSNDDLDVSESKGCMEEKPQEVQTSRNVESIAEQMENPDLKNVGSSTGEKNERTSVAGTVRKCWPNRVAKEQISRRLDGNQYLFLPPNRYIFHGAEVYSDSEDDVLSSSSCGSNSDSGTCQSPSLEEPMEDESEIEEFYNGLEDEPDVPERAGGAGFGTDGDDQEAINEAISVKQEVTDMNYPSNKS

SMILES | TSA(with NAD+) / Primary screening (TSA) / delta Tm (K)
NC(=O)c1nn(CC(=O)Nc2ccc(N3CCN(Cc4ccccc4)CC3)cc2)c(=O)c2ccccc12 | 0.18
Cc1ccc(OC2CCN(Cc3cc(=O)n4c(-c5ccccc5)csc4n3)CC2)cc1C | 0.09
NC(=O)C1CCN(c2ncnc3sc4c(c23)CCCC4)CC1 | 0.32
COc1ccccc1N1CCN(C(=O)c2ccccc2SCC(=O)NC23CC4CC(CC(C4)C2)C3)CC1 | -0.13
CC(=O)NS(=O)(=O)c1ccc(NS(=O)(=O)c2cccs2)cc1 | 0.06
CCn1nccc1CNc1cnc2c(c1)c(C)nn2C | -0.19
CNc1ncnc2c1cnn2-c1ccccc1 | -0.28
O=C(NC1CC1)c1ccc2[nH]c3c(c2c1)CCCC3 | -0.16
Cc1nnc(C(C)Oc2ccc3c(c2)CCCNC3=O)o1 (stereo not drawn) | -0.11
Cc1cc(S(=O)(=O)Nc2ccc(C(=O)NCc3ccccc3-n3cccn3)cc2)ccc1F | 0.03
Cc1ccc(C(=O)OCc2ccc(C(=O)Nc3ccccc3)cc2)cc1 | -0.18
CCS(=O)(=O)NCC(=O)O | -0.12
CC(C)C(=O)NCCc1ccc(Cl)s1 | 0.09
O=C(Nc1cccc(Cn2[nH]c(=O)ccc2=O)c1)c1cccc(Oc2ccccc2)c1 | -0.19
Cc1cc(C)cc(N(Cc2ccc(C(N)=O)cc2)Cc2ccc(C(N)=O)cc2)c1 | -0.03
O=C(O)c1cccc2ccccc12 | -0.06
CN1CCC(Sc2ccc3ccccc3c2)C1=O (stereo not drawn) | -0.19
CN(c1ccc(C(N)=O)cc1)S(=O)(=O)c1ccc2c(c1)CCC2 | -0.23
O=C(Cn1[nH]c(=O)c2ccccc2c1=O)Nc1cccc(S(=O)(=O)NCc2ccco2)c1 | -0.01
Cc1nn(-c2ccccc2)cc1C=C1C(=O)NC(=S)NC1=O | -0.01
C[C@@H](N)C(N)=O | -0.12
CN(CCCc1cc(-c2ccccc2)n(C)n1)C(=O)CCc1c[nH]c2ccccc12 | -0.13
NC(=O)c1ccccc1NC(=O)CCN1CCN(c2ncccn2)CC1 | -0.06
O=c1cc(NCCCc2ccccc2)nc2ccccn12 | -0.05

SMILES | TSA(with NAD+) / Primary screening (TSA) / delta Tm (K)
CCOC(=O)c1c(NC(=O)COC(=O)c2ccc(C)c(O)c2)sc(C(=O)N(CC)CC)c1C | 0.06
Cc1ccc(OCCCCn2cncn2)c(C)c1 | -0.18
NCCC1(O)CNC1 | -0.03
CN(CCC#N)C(=O)C(C)(C)c1ccccc1 | -0.08
Cc1cc(C2=NN=C(NCc3ccco3)SC2)c(C)n1Cc1ccc2c(c1)OCO2 | -0.43
C=CCOc1ccc(C2C(C(=O)c3ccco3)=C(O)C(=O)N2CCCN2CCOCC2)cc1 (stereo not drawn) | -0.13
CC(C)CC(=O)Nc1ccc(C(=O)COC(=O)CNC(=O)CC23CC4CC(CC(C4)C2)C3)cc1 | 0.07
O=C(Nc1nnc[nH]1)C1CC(=O)N(c2ccc3c(c2)CCC3)C1 (stereo not drawn) | -0.04
CCNC(=O)NCc1ccc(NC(=O)c2ccc([N+](=O)[O-])cc2)cc1 | -0.12
CC(OC(=O)c1ccc(CS(C)(=O)=O)cc1)C(=O)NCc1ccco1 (stereo not drawn) | -0.01
COc1ccc(NC(=O)CC23CC4CC(C2)CC(CC(=O)Nc2ccc(OC)cc2)(C4)C3)cc1 | -0.11
NC(=S)c1cccc(NC(=O)CN2CCOCC2)c1 | -0.24
NC(=O)c1ccc(COC(=O)c2ccc(S(=O)(=O)NC3CC3)cc2)cc1 | -0.11
CCn1nc(C(=O)N(C)Cc2ccc(OCc3ccccc3)c(OC)c2)c2ccccc2c1=O | -0.01
Cn1ccnc1-c1sc(NC(=O)c2ccccc2Br)nc1-c1ccccc1 | 0.05
COc1ccc(OC)c(C2CCCN2C(=O)c2ccc(NC(=O)c3ccco3)s2)c1 (stereo not drawn) | -0.18
COC(=O)c1ccccc1NC(=O)Cc1c[nH]c2ccccc12 | -0.16
COC(=O)c1c(C)[nH]c(C(=O)NCCc2ccc(-n3cccn3)cc2)c1C | -0.03
CN(c1ccc(F)c(F)c1)S(=O)(=O)c1ccc2nc[nH]c(=O)c2c1 | 0.16
c1ccc(-c2noc(CN3CCN(c4nc(-c5ccsc5)nc5ccccc45)CC3)n2)cc1 | 0.13
O=C(NNC(=O)c1cnccn1)c1ccc(OCc2ccccc2)cc1 | 0.01
O=c1[nH]cnc2c(Cl)cc(Cl)cc12 | -0.16
COCCC(C)N (stereo not drawn) | -0.11
Cn1ncc2c(=O)n(CC(=O)Nc3cc(C(N)=O)ccc3N3CCCC3)cnc21 | -0.12

SMILES | TSA(with NAD+) / Primary screening (TSA) / delta Tm (K)
Cc1ccc(-c2nc(C)sc2CC(=O)Nc2ccc(C(N)=O)cc2)cc1 | -0.08
COc1cccc(C2(C)NC(=O)N(CC(=O)Nc3ccc(C(N)=O)cc3)C2=O)c1 (stereo not drawn) | 0.15
Cc1ccc(-c2nn(-c3ccccc3)cc2C(=O)Nc2cccc(S(=O)(=O)N3CCOCC3)c2)cc1 | 0.26
CC(C)(C)OC(=O)N1CCN(C(=O)CNc2ccccc2C(N)=O)CC1 | 0.06
C=CCSCCN | 0.05
O=[N+]([O-])c1ccc(-c2nnc(CSc3nnc(NCc4ccccc4)s3)o2)cc1 | -0.01
Cc1cccc2c(CC(=O)O)c(-c3ccccc3)[nH]c12 | -0.18
CCCOc1ccc(NC=C2C(=O)NC(=S)NC2=O)cc1OCCC | -0.08
O=C(Cc1cccc2ccccc12)NC(c1ccccc1)c1ccccc1 | -0.03
O=C1/C(=C/c2ccc(F)cc2)Oc2cc(O)ccc21 | -0.01
Cc1noc(C)c1COc1cccc(C(=O)Nc2ccc(N3CCN(Cc4ccccc4)CC3)cc2)c1 | 0.12
CCN(CC)S(=O)(=O)c1cccc(C(=O)N[C@H](C(=O)OCC(=O)NC(C)C23CC4CC(CC(C4)C2)C3)C(C)C)c1 (stereo partly drawn) | -0.11
O=C1/C(=C/c2cccc3cccnc23)COc2ccc(Br)cc21 | 0.09
CN(C)c1ccc(S(N)(=O)=O)cc1N | -0.04
COc1ccc(CCNC(=O)c2ccccc2SCC(=O)NC23CC4CC(CC(C4)C2)C3)cc1 | 0.05
CC(=O)Nc1ccc(NC(=O)c2cn(Cc3ccccc3)nc2-c2ccc(Cl)cc2)cc1 | 0.19
N#CC1=C(N)N(c2ccccc2)C(=O)C1 | -0.22
Oc1ccc(/C=N/c2ccccc2Cc2ccccc2)c(O)c1O | -0.48
Cc1[nH]c2ccc(CNC(=O)N3CCC(C(N)=O)CC3)cc2c1C | -0.05
O=C(/C=C/c1ccc(N2CCCC2=O)cc1)NCCN1CCOCC1 | 0.16
Cc1cccc(Nc2nnc(SCC(=O)Nc3ccc(C(N)=O)cc3)s2)c1 | 0.17
Cc1ccc(C(=O)OCC(=O)NC(C)c2ccc3c(c2)CCCC3)cc1O (stereo not drawn) | -0.01
CN1CCN(C(=O)/C=C/c2cn(CCC#N)c3ccccc23)C(c2ccccc2)C1 (stereo not drawn) | -0.14
NC(=O)c1ccc(NC(=O)c2cc(-c3cccnc3)nc3ccccc23)cc1 | -0.09

SMILES | TSA(with NAD+) / Primary screening (TSA) / delta Tm (K)
NC(=O)c1ccc(NC(=O)COC(=O)CNC(=O)C2CCCCC2)cc1 | 0.01
NS(=O)(=O)c1ccc2c(c1)CCN2C(=O)Nc1cccc2ccccc12 | 0.08
CCn1c(S)nnc1C1CC1 | -0.23
O=c1oc2ccc3ccccc3c2cc1-c1cnc(N/N=C/c2ccc(Br)cc2)s1 | 0.28
Cc1ccc(C(=O)OCC(=O)NC(C)C23CC4CC(CC(C4)C2)C3)cc1NC(=O)c1ccco1 (stereo not drawn) | -0.12
Cc1cc(C(=O)OCc2cc3ccccc3[nH]c2=O)on1 | -0.14
O=C(CN1CCCCCCC1=O)NCCc1nc2ccccc2[nH]1 | -0.22
Cc1cccc(NC(=O)CN2CCN(c3ccccc3F)CC2)c1C | -0.05
CCCC(N)CN (stereo not drawn) | -0.19
Cc1cc(CNc2ccccc2C(N)=O)no1 | 0.07
CCCOc1cccc(C2C(C(=O)c3ccco3)=C(O)C(=O)N2CCCN2CCOCC2)c1 (stereo not drawn) | -0.13
NC(=O)C1CCN(c2nc(CSc3ccccc3)nc3sc4c(c23)CCCC4)CC1 | 2.22
NC(=O)C1CCN(Cc2nc3ccc(Cl)cc3c(=O)[nH]2)CC1 | -0.23
Cc1ccc(NC(=O)CN2CCN(C(=O)c3ccccc3NC(=O)c3ccco3)CC2)cc1 | -0.03
COc1ccc(C2C(C(=O)c3cc4ccccc4o3)=C(O)C(=O)N2CCCN2CCOCC2)cc1 (stereo not drawn) | 0.01
Cn1c(-c2ccccc2)c(C=O)c2ccccc21 | -0.32
O=C1/C(=C\c2ccc(Br)cc2)COc2ccccc21 | -0.11
O=C(Nc1cccc(S(=O)(=O)N2CCOCC2)c1)c1nn(Cc2ccccc2)c(=O)c2ccccc12 | 0.05
CCc1ccc(CNC(C)c2c(C)nn(C)c2C)cc1 (stereo not drawn) | -0.21
CC(N)CCO (stereo not drawn) | -0.03
CC1Cc2ccccc2N1C(=O)COC(=O)/C=C/c1cccc(F)c1 (stereo not drawn) | 0.09
Clc1ccc(-c2nc(CSc3nnc(NCc4ccco4)s3)cs2)cc1 | -0.03
CCNCc1ccc2c(c1)OCO2 | -0.18
Cc1nc2sccn2c1CNCc1ccccc1 | -0.14

24 successive records from above, quoted:
SMILES | TSA(with NAD+) / Primary screening (TSA) / delta Tm (K)
Cc1ccc(C(=O)OCC(=O)NC(C)c2ccc3c(c2)CCCC3)cc1O (stereo not drawn) | -0.01
CN1CCN(C(=O)/C=C/c2cn(CCC#N)c3ccccc23)C(c2ccccc2)C1 (stereo not drawn) | -0.14
NC(=O)c1ccc(NC(=O)c2cc(-c3cccnc3)nc3ccccc23)cc1 | -0.09
NC(=O)c1ccc(NC(=O)COC(=O)CNC(=O)C2CCCCC2)cc1 | 0.01
NS(=O)(=O)c1ccc2c(c1)CCN2C(=O)Nc1cccc2ccccc12 | 0.08
CCn1c(S)nnc1C1CC1 | -0.23
O=c1oc2ccc3ccccc3c2cc1-c1cnc(N/N=C/c2ccc(Br)cc2)s1 | 0.28
Cc1ccc(C(=O)OCC(=O)NC(C)C23CC4CC(CC(C4)C2)C3)cc1NC(=O)c1ccco1 (stereo not drawn) | -0.12
Cc1cc(C(=O)OCc2cc3ccccc3[nH]c2=O)on1 | -0.14
O=C(CN1CCCCCCC1=O)NCCc1nc2ccccc2[nH]1 | -0.22
Cc1cccc(NC(=O)CN2CCN(c3ccccc3F)CC2)c1C | -0.05
CCCC(N)CN (stereo not drawn) | -0.19
Cc1cc(CNc2ccccc2C(N)=O)no1 | 0.07
CCCOc1cccc(C2C(C(=O)c3ccco3)=C(O)C(=O)N2CCCN2CCOCC2)c1 (stereo not drawn) | -0.13
NC(=O)C1CCN(c2nc(CSc3ccccc3)nc3sc4c(c23)CCCC4)CC1 | 2.22
NC(=O)C1CCN(Cc2nc3ccc(Cl)cc3c(=O)[nH]2)CC1 | -0.23
Cc1ccc(NC(=O)CN2CCN(C(=O)c3ccccc3NC(=O)c3ccco3)CC2)cc1 | -0.03
COc1ccc(C2C(C(=O)c3cc4ccccc4o3)=C(O)C(=O)N2CCCN2CCOCC2)cc1 (stereo not drawn) | 0.01
Cn1c(-c2ccccc2)c(C=O)c2ccccc21 | -0.32
O=C1/C(=C\c2ccc(Br)cc2)COc2ccccc21 | -0.11
O=C(Nc1cccc(S(=O)(=O)N2CCOCC2)c1)c1nn(Cc2ccccc2)c(=O)c2ccccc12 | 0.05
CCc1ccc(CNC(C)c2c(C)nn(C)c2C)cc1 (stereo not drawn) | -0.21
CC(N)CCO (stereo not drawn) | -0.03
CC1Cc2ccccc2N1C(=O)COC(=O)/C=C/c1cccc(F)c1 (stereo not drawn) | 0.09

From paper PMC6925144, “A prospective compound screening contest identified broader inhibitors for Sirtuin 1” (Scientific Reports, 2019)
